No constants are given. Whether binding was seen depends on the method and setting. Binding seen in cells or lysates may run through a third protein. Some entries that bind do so weakly or less than the wild type.
These molecules were tested against triple-Flag–tagged TGIF2a (transforming growth factor–β–induced homeobox factor 2, isoform a) (UniProt Q8C0Y1) (assay: co-IP; N2A cells transfected, lysed after 48 hours in nondenaturing buffer (20 mM tris-HCl pH 8.0, 137 mM NaCl, 1% NP-40, 2 mM EDTA); anti-FLAG antibody or rabbit IgG isotype control, Protein G Dynabeads, 4°C; Western blot for HDAC1, HDAC2, SIN3A and FLAG).

The chains behind the UniProt entries cited, without tags or fusion partners.
UniProt Q8C0Y1: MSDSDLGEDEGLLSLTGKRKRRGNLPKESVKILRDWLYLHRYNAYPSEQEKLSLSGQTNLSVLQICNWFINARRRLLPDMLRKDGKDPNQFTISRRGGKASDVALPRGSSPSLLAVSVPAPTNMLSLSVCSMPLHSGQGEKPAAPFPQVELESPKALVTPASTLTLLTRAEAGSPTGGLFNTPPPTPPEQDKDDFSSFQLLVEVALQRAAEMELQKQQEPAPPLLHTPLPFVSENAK
UniProt O09106: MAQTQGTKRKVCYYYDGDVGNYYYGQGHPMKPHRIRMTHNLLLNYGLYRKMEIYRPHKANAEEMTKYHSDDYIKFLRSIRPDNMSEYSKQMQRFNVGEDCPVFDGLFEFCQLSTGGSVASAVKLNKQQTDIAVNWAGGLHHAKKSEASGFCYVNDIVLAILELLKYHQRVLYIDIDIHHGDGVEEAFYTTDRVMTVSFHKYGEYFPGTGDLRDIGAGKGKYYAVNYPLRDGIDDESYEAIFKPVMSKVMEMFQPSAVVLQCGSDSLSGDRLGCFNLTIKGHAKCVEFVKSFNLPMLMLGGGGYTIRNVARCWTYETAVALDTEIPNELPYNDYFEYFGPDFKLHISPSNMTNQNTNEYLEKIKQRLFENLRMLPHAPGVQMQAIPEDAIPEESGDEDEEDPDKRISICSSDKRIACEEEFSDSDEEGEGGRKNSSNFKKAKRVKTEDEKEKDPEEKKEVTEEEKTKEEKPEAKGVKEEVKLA
UniProt P70288: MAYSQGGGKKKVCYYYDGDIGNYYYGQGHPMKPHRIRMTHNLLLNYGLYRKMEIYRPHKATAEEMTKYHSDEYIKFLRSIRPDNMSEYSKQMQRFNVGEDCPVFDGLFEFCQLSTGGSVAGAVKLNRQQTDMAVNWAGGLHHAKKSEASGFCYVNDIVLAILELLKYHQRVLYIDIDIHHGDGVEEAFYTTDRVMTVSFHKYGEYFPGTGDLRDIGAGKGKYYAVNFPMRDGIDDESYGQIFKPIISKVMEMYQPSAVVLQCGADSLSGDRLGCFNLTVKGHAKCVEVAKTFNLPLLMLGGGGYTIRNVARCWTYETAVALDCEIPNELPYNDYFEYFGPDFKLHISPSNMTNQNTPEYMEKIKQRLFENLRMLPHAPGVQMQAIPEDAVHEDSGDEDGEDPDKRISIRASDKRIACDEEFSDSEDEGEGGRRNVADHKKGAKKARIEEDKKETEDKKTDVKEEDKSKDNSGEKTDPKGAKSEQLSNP

| binding | Molecule |
| --- | --- |
| binds | HDAC1 (from UniProt O09106 1-482) |
| binds | HDAC2 (from UniProt P70288 1-488) |
| binds | SIN3 transcription regulator family member A (protein, UniProt Q60520 1-1274) MKRRLDDQESPVYAAQQRRIPGSTEAFSHQHRVLAPAPPVYEAVSETMQSATGIQYSVAPNYQVSAVPQSSGSHGPAIAAVHSSHHHPTAVQPHGGQVVQSHAHPAPPVAPVQGQQQFQRLKVEDALSYLDQVKLQFGSQPQVYNDFLDIMKEFKSQSIDTPGVISRVSQLFKGHPDLIMGFNTFLPPGYKIEVQTNDMVNVTTPGQVHQIPTHGIQPQPQPPPQHPSQPSSQSAPTPAQPAPQPTAAKVSKPSQLQAHTPASQQTPPLPPYASPRSPPVQPHTPVTISLGTAPSLQNNQPVEFNHAINYVNKIKNRFQGQPDIYKAFLEILHTYQKEQRNAKEAGGNYTPALTEQEVYAQVARLFKNQEDLLSEFGQFLPDANSSVLLSKTTAEKVDSVRNDHGGTVKKPQLNNKPQRPSQNGCQIRRHSGTGATPPVKKKPKLMSLKESSMADASKHGVGTESLFFDKVRKALRSAEAYENFLRCLVIFNQEVISRAELVQLVSPFLGKFPELFNWFKNFLGYKESVHLESFPKERATEGIAMEIDYASCKRLGSSYRALPKSYQQPKCTGRTPLCKEVLNDTWVSFPSWSEDSTFVSSKKTQYEEHIYRCEDERFELDVVLETNLATIRVLEAIQKKLSRLSAEEQAKFRLDNTLGGTSEVIHRKALQRIYADKAADIIDGLRKNPSIAVPIVLKRLKMKEEEWREAQRGFNKVWREQNEKYYLKSLDHQGINFKQNDTKVLRSKSLLNEIESIYDERQEQATEENAGVPVGPHLSLAYEDKQILEDAAALIIHHVKRQTGIQKEDKYKIKQIMHHFIPDLLFAQRGDLSDVEEEEEEEMDVDEATGAPKKHNGVGGSPPKSKLLFSNTAAQKLRGMDEVYNLFYVNNNWYIFMRLHQILCLRLLRICSQAERQIEEENREREWEREVLGIKRDKSDSPAIQLRLKEPMDVDVEDYYPAFLDMVRSLLDGNIDSSQYEDSLREMFTIHAYIAFTMDKLIQSIVRQLQHIVSDEVCVQVTDLYLAENNNGATGGQLNSQTSRSLLESAYQRKAEQLMSDENCFKLMFIQSQGQVQLTVELLDTEEENSDDPVEAERWSDYVERYMSSDTTSPELREHLAQKPVFLPRNLRRIRKCQRGREQQEKEGKEGNSKKTMENVESLDKLECRFKLNSYKMVYVIKSEDYMYRRTALLRAHQSHERVSKRLHQRFQAWVDKWTKEHVPREMAAETSKWLMGEGLEGLVPCTTTCDTETLHFVSINKYRVKYGTVFKAP |

— publication PMC13308598
